In patent publication US20210364534A1 (THE BOARD OF TRUSTEES OF THE UNIVERSITY OF ILLINOIS, priority 2018, published 2021):

Test: general procedure: Fmoc solid-phase peptide synthesis
Settings: whole synthesis, TFA salt

## DS(PO3)HEKRHHGYRRKFHEKHHSHREFPFYGDYGSNYLYDN (DSHEKRHHGYRRKFHEKHHSHREFPFYGDYGSNYLYDN; phosphorylated serine; MOD_RES (2)..(2) PHOSPHORYLATION)
  final purity (method not given): >95%
